Reference: patent US11813285B2, “Stable pharmaceutical composition comprising esomeprazole and sodium bicarbonate” (CHONG KUN DANG PHARMACEUTICAL CORP., priority 2018, dated 2023)
Some results were stated once for a whole list of compounds, not compound by compound.

Test: Stability test of esomeprazole and omeprazole according to pH
Type: physicochemical
Conditions: pH 7.0 or more
Description: <Analysis method> A) Detector: UV-Visible spectrophotometer (measurement wavelength:280 nm) B) Column: Inertsil C8-3 (4.6×150 mm, 5 μm) or equivalent column C) Injection amount: 20 μl D) Flow rate: 1.5 mL/min E) Column temperature: Constant temperature near 40° C. F) Sample temperature: Constant temperature near 10° C. […] H) Mobile phase: […] The buffer solution at pH 7.6 was prepared as follows: 0.725 g of sodium dihydrogen phosphate monohydrate (NaH2PO4.H2O) and 4.472 g of anhydrous disodium hydrogen phosphate (Na2HPO4) were weighed to be put in an 1 L volumetric flask and dissolved in purified water, followed by filling the flask with purified water up to the calibration mark. 250 mL of the liquid was taken to be put in an 1 L volumetric flask, followed by filling the flask with purified water up to the calibration mark and adjusting the pH to 7.6 with phosphoric acid.

Row | Structure (SMILES) | time for which stable
1 | COc1ccc2[nH]c([S+]([O-])Cc3ncc(C)c(OC)c3C)nc2c1 (centres unmarked) [Omeprazole, 5-methoxy-2-[(4-methoxy-3,5-dimethyl-2-pyridinyl)methyl]sulfinyl-1H-benzimidazol] | at least 2 hours
2 | COc1ccc2[nH]c([S@@+]([O-])Cc3ncc(C)c(OC)c3C)nc2c1 [S-omeprazole, (S)-5-methoxy-2-[(4-methoxy-3,5-dimethyl-2-pyridinyl)-methyl]sulfinyl-1H-benzimidazol] | at least 2 hours
